Experimental data as given in US20240400701A1 (LANOVA MEDICINES DEVELOPMENT, published 2024).
Residue numbers refer to the chain shown, from its start. No constants are given. Whether binding was seen depends on the method and setting. Some entries that bind do so weakly or less than the wild type.

B1: 94C4C3 H1L1 hIgG1 (antibody, V domains shown)
VH: QLQLQESGPGLVKPSETLSLTCTVSGYSITSDYAWNWIRQPPGKGLEWIGYISYSGSISYNPSLKSRVTISVDTSKNQFSLKLSSVTAADTAVYYCARSRYSWFDYWGQGTLVTVSS
VL: EIVLTQSPGTLSLSPGERATLSCSASESVDTYGNSFMHWYQQKPGQAPRLLIYRASSLESGIPDRFSGSGSGTDFTLTISRLEPEDFAVYYCQQSNEDPYTFGGGTKVEIK
notes: Humanized, human IgG1; also called 94C4C3 H1L1 hlgG1
B2: 108F3D1E9 H1L1 hIgG1 (antibody, V domains shown)
VH: B1 VH with Y33F, Y54F, I58T, D105A
VL: DIQMTQSPSSLSASVGDRVTITCRASESVDTYGNSFMHWYQQKPGKAPKLLIYRASNLESGVPSRFSGSGSGTDFTLTISSLQPEDFATYYCQQSNEDPYTFGGGTKVEIK
notes: Humanized, PTM de-risked VH, human IgG1; also called 108F3D1E9 H1L1 hlgG1
B3: 31D9B3 VH1.3-VL2.2 hIgG1 (antibody, V domains shown)
VH: QVQLVQSGAEVKKPGASVKVSCKASGYTFTDYWVSWVRQAPGQGLEWMGEIYPKNQVSNFNEKFKGRVTMTTDTSTSTAYMELRSLRSDDTAVYYCARQRDYWGQGTLVTVSS
VL: DVVMTQSPLSLPVTLGQPASISCRSSQSLEYGDRYTYLEWYLQRPGQSPRLLIYGVSNRFSGVPDRFSGSGSGTDFTLKISRVEAEDVGVYYCFQATHDPNTFGQGTKLEIK
notes: Humanized, PTM de-risked, human IgG1; also called 31D9B3 VH1.3-VL2.2 hlgG1

The binders below were run against cyno AMHR2 (cyno) (assay: FACS on CHO-K1 cells over-expressing cyno AMHR2).

| binding | Binder |
| --- | --- |
| binds | B1 |
| binds | B2 |
| binds | B3 |
